Part of at least one peptide drawing is inferred or uncertain, most often the ends. Where no end group is shown, it is not given here.
Legend:
NK92 cells = experiment: Fratricide inhibition of NK cells; format: cell-based; details: NK92 target cells pretreated with 20 μM peptide or 5 μM SB431542 plus 10 ng/ml TGF-β; fresh NK92 (20:1) or primary NK (10:1) effector cells; 4 hours
Description: To this end, 1×10^6 cells/ml of the NK92 cells cultured in the same manner as Example [2-1] were cultured for 1 hour at 37° C. with a culture medium added with 5 μl of calcein-AM (Invitrogen) and stained, and then centrifuged at 1000 rpm for 5 minutes and washed to be prepared as ‘target cells.’ As described above, the target cells stained with calcein-AM were dispensed in a 96-well plate, respectively, and treated with untreated (fresh) NK92 cells or primary NK cells as effector cells at the ratio of 20:1 or 10:1 in the same manner as Example [2-3], and cultured at 37° C. for 4 hours. The culture medium cultured above was centrifuged at 100 rcf for 5 minutes to separate the supernatant, and 100 μl each was dispensed into a 96-well black plate, and then ELISA assay (Fluorescence 480 nm/530 nm, SpectraMax i3x Molecular Device) was performed.

TGF-β = experiment: Inhibition of TGF-β expression in cancer cells (ELISA of secreted TGF-β); format: cell-based; details: peptide 5 μM, 10 μM and 20 μM, treated twice, 24 hours each, supernatant ELISA
B16F10 melanoma = experiment: Anticancer effect in animal model (lung metastasis of B16F10 melanoma); format: in vivo; details: 24-month-old C57BL6J mouse; 25 mg/kg intraperitoneally once a week for 4 weeks; 4×10^5 B16F10 via tail vein; compared to negative control group

GSKKVILDLPLVI [peptide of Example [1-5]]
fratricide activity of the NK cells (NK92 cells): significantly reduced | amount of TGF-β secreted from the H460 cells (TGF-β): reduced depending on the concentration | number of nodules in the lungs (B16F10 melanoma): significantly reduced
